# Measurements published in patent US20160228506A1, “Compositions and Formulations for Prevention and Reduction of Tumorigenesis, Cancer Cell Proliferation and Invasion, and Methods of Production and Use Thereof in Cancer Treatment” (PRONUTRIA, INC., priority 2013, published 2016).
# Test: Secreted protein level from Bacillus subtilis by chip electrophoresis
# Conditions: for SEQID-00103 mg/l/OD: secreted SEQID-00103 fused to the signal peptide; for SEQID-00103 mg/l/OD / SEQID-00105 mg/l/OD / SEQID-00338 mg/l/OD / SEQID-00341 mg/l/OD / SEQID-00352 mg/l/OD: B. subtilis leader peptide library; for SEQID-00105 mg/l/OD: secreted SEQID-00105 fused to the signal peptide; for SEQID-00338 mg/l/OD: secreted SEQID-00338 fused to the signal peptide; for SEQID-00341 mg/l/OD: secreted SEQID-00341 fused to the signal peptide; for SEQID-00352 mg/l/OD: secreted SEQID-00352 fused to the signal peptide
substance,measurement,setting,value
3921 (MKKKKTWKRFLHFSSAALAAGLIFTSAAPAEA; listed as Bacillus subtilis) [compound 3921],SEQID-00103 mg/l/OD,,12.1 mg/l/OD
same,SEQID-00105 mg/l/OD,,135.7 mg/l/OD
same,SEQID-00338 mg/l/OD,,9.5 mg/l/OD
same,SEQID-00341 mg/l/OD,,148.14 mg/l/OD
same,Other SEQ IDs mg/l/OD,secreted SEQID-00405 fused to the signal peptide,3.1 mg/l/OD
3922 (MKRSISIFITCLLITLLTMGGMIASPASA; listed as Bacillus subtilis) [compound 3922],SEQID-00103 mg/l/OD,,12.1 mg/l/OD
same,SEQID-00105 mg/l/OD,,73.6 mg/l/OD
same,SEQID-00341 mg/l/OD,,33.9 mg/l/OD
same,SEQID-00352 mg/l/OD,,2.7 mg/l/OD
3923 (MRKKTKNRLISSVLSTVVISSLLFPGAAGA; listed as Bacillus subtilis) [compound 3923],SEQID-00341 mg/l/OD,,40.4 mg/l/OD
3924 (MRKNRILALFVLSLGLLSFMVTPVSA; listed as Bacillus subtilis) [compound 3924],SEQID-00338 mg/l/OD,,5.7 mg/l/OD
same,SEQID-00341 mg/l/OD,,41.9 mg/l/OD
same,Other SEQ IDs mg/l/OD,secreted SEQID-00398 fused to the signal peptide,5.5 mg/l/OD
3926 (MKSCKQLIVCSLAAILLLIPSVSFA; listed as Bacillus subtilis) [compound 3926],SEQID-00338 mg/l/OD,,3.4 mg/l/OD
3927 (MKKKLAAGLTASAIVGTTLVVTPAEA; listed as Bacillus subtilis) [compound 3927],SEQID-00103 mg/l/OD,,14.8 mg/l/OD
3929 (MRNLTKTSLLLAGLCTAAQMVFVTHASA; listed as Bacillus subtilis) [compound 3929],SEQID-00341 mg/l/OD,,37.5 mg/l/OD
3930 (MKRLCLWFTVFSLFLVLLPGKALG; listed as Bacillus subtilis) [compound 3930],SEQID-00341 mg/l/OD,,64.4 mg/l/OD
3931 (MKLKTKASIKFGICVGLLCLSITGFTPFFNSTHAEA; listed as Bacillus subtilis) [compound 3931],SEQID-00352 mg/l/OD,,2.8 mg/l/OD
3933 (MKKRKRRNFKRFIAAFLVLALMISLVPADVLA; listed as Bacillus subtilis) [compound 3933],SEQID-00338 mg/l/OD,,7 mg/l/OD
same,SEQID-00352 mg/l/OD,,2.14 mg/l/OD
3934 (MFKFKKNFLVGLSAALMSISLFSATASA; listed as Bacillus subtilis) [compound 3934],SEQID-00103 mg/l/OD,,13.4 mg/l/OD
same,SEQID-00105 mg/l/OD,,114.4 mg/l/OD
same,SEQID-00338 mg/l/OD,,9.8 mg/l/OD
same,SEQID-00341 mg/l/OD,,83.3 mg/l/OD
3935 (MKRMIVRMTLPLLIVCLAFSSFSASARA; listed as Bacillus subtilis) [compound 3935],SEQID-00352 mg/l/OD,,0.69 mg/l/OD
3936 (MKRITINIITMFIAAAVISLTGTAEA; listed as Bacillus subtilis) [compound 3936],SEQID-00341 mg/l/OD,,61.7 mg/l/OD
3937 (MRKKRVITCVMAASLTLGSLLPAGYASA; listed as Bacillus subtilis) [compound 3937],SEQID-00105 mg/l/OD,,135.6 mg/l/OD
3938 (MKKKQVMLALTAAAGLGLTALHSAPAAKA; listed as Bacillus subtilis) [compound 3938],SEQID-00103 mg/l/OD,,20.8 mg/l/OD
3939 (MKWMCSICCAAVLLAGGAAQA; listed as Bacillus subtilis) [compound 3939],SEQID-00103 mg/l/OD,,9.4 mg/l/OD
3940 (MKKELLASLVLCLSLSPLVSTNEVFA; listed as Bacillus subtilis) [compound 3940],SEQID-00105 mg/l/OD,,83.4 mg/l/OD
same,SEQID-00341 mg/l/OD,,80.2 mg/l/OD
3941 (MNFKKTVVSALSISALALSVSGVASA; listed as Bacillus subtilis) [compound 3941],SEQID-00103 mg/l/OD,,14.3 mg/l/OD
same,SEQID-00105 mg/l/OD,,152.7 mg/l/OD
3942 (MKRLFMKASLVLFAVVFVFAVKGAPAKA; listed as Bacillus subtilis) [compound 3942],SEQID-00103 mg/l/OD,,20 mg/l/OD
3943 (MLKKKWMVGLLAGCLAAGGFSYNAFA; listed as Bacillus subtilis) [compound 3943],SEQID-00341 mg/l/OD,,132.5 mg/l/OD
same,SEQID-00352 mg/l/OD,,2.23 mg/l/OD
3944 (MKKIGLLFMLCLAALFTIGFPAQQADA; listed as Bacillus subtilis) [compound 3944],SEQID-00103 mg/l/OD,,13.3 mg/l/OD
3945 (MRFTKVVGFLSVLGLAAVFPLTAQA; listed as Bacillus subtilis) [compound 3945],SEQID-00105 mg/l/OD,,124.3 mg/l/OD
3947 (MTLTKLKMLSMLTVMIASLFIFSSQALA; listed as Bacillus subtilis) [compound 3947],SEQID-00338 mg/l/OD,,6.3 mg/l/OD
3948 (MKRKLLSSLAISALSLGLLVSAPTASFAAE; listed as Bacillus subtilis) [compound 3948],Other SEQ IDs mg/l/OD,secreted SEQID-00404 fused to the signal peptide,2.5 mg/l/OD
3949 (MTKKAWFLPLVCVLLISGWLAPAASASA; listed as Bacillus subtilis) [compound 3949],SEQID-00352 mg/l/OD,,2.26 mg/l/OD
3950 (MRKSLITLGLASVIGTSSFLIPFTSKTASA; listed as Bacillus subtilis) [compound 3950],SEQID-00103 mg/l/OD,,14.6 mg/l/OD
same,SEQID-00105 mg/l/OD,,124.4 mg/l/OD
3951 (MKRIRIPMTLALGAALTIAPLSFASA; listed as Bacillus subtilis) [compound 3951],SEQID-00103 mg/l/OD,,17.7 mg/l/OD
3952 (MRKYTVIASILLSFLSVLSGG; listed as Bacillus subtilis) [compound 3952],SEQID-00103 mg/l/OD,,26.2 mg/l/OD
3953 (MKKLLTVMTMAVLTAGTLLLPAQSVTPAAHA; listed as Bacillus subtilis) [compound 3953],Other SEQ IDs mg/l/OD,secreted SEQID-403 fused to the signal peptide,3.4 mg/l/OD
3954 (MNKPTKLFSTLALAAGMTAAAAGGAGTIHA; listed as Bacillus subtilis) [compound 3954],SEQID-00105 mg/l/OD,,131 mg/l/OD
3955 (MVKSFRMKALIAGAAVAAAVSAGAVSDVPAAKVLQPTAAYA; listed as Bacillus subtilis) [compound 3955],SEQID-00352 mg/l/OD,,3.7 mg/l/OD
3956 (MKWNNMLKAAGIAVLLFSVFAYAAPSLKAVQA; listed as Bacillus subtilis) [compound 3956],SEQID-00338 mg/l/OD,,7.9 mg/l/OD
same,SEQID-00341 mg/l/OD,,41.5 mg/l/OD
same,SEQID-00352 mg/l/OD,,0.95 mg/l/OD
